PubChem BioAssay AID1224828, NIAID | 2016
This is an unselected part of about 17,000 deposited reagents. 762 of them (4.5%) count as active. 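Active calls include both raised and lowered p65 entry, mostly lowered; wells with fewer than 50 cells lack a z-score.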 Raw values are not corrected between plates. The numbers tell different reagents against one gene apart.

- Assay: 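Knock-downs that increase or decrease LPS-induced p65 nuclear translocation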 (primary screen)
- Cell system: mouse RAW264.7 G9 macrophage reporter cells (GFP-p65, Tnf promoter-mCherry)
- Reagents: siRNA pool against mouse genes, 100 nM
- Timing: 2 days siRNA transfection, then 40 min LPS before fixation
- Treatment: LPS (Salmonella minnesota R595) at 10 ng/ml
- Measurement: 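Imaged p65 nuclear translocation ratio, normalised to the plate median, converted to robust z-scores and averaged across two replicates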
- Direction: p65 translocation robust z-score: higher = more nuclear NF-kappaB p65 after LPS than the plate median; nuclear/cytoplasmic p65 ratio: higher = more nuclear NF-kappaB p65
- Rule for the call: 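Called active when z exceeds 3.3 or falls under -1.56 (median of Tlr4 controls), giving activity score of at least 50; no calls for control wells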
- Calls: active = hit (p65 shift raised or lowered); inactive = no clear change

no.	Gene	pool no.	p65 translocation robust z-score	nuclear/cytoplasmic p65 ratio, rep 1	nuclear/cytoplasmic p65 ratio, rep 2	low cell count flag	Outcome
1	Fdxr (ferredoxin reductase)	1	-0.08	1.46	1.36	enough cells to score	inactive
2	Pias4 (protein inhibitor of activated STAT 4)	1	-0.05	1.58	1.32	enough cells to score	inactive
3	Gja8 (gap junction protein, alpha 8)	1	-0.79	1.31	1.29	enough cells to score	inactive
4	Or4d1 (olfactory receptor family 4 subfamily D member 1)	1	0.17	1.62	1.53	enough cells to score	inactive
5	Coa3 (cytochrome C oxidase assembly factor 3)	1	-0.15	1.54	1.77	enough cells to score	inactive
6	Olfml2a (olfactomedin-like 2A)	1		1.01	1.2	fewer than 50 cells per well; well left out of scoring	inactive
7	Zbtb37 (zinc finger and BTB domain containing 37)	1	0.18	1.49	1.6	enough cells to score	inactive
8	Eif4enif1	1	0.15	1.48	1.52	enough cells to score	inactive
9	Gclc (glutamate-cysteine ligase, catalytic subunit)	1	-0.48	1.36	1.32	enough cells to score	inactive
10	Nsun5 (NOL1/NOP2/Sun domain family, member 5)	1	-1.05	1.47	1.44	enough cells to score	inactive
11	Dnajc22 (DnaJ heat shock protein family (Hsp40) member C22)	1	-1.35	1.12	1.03	enough cells to score	inactive
12	Grin2a (glutamate receptor, ionotropic, NMDA2A (epsilon 1))	1	-0.26	1.38	1.36	enough cells to score	inactive
13	Vmn1r217 (vomeronasal 1 receptor 217)	1	-2.82	1.02	0.992	enough cells to score	active
14	Dbndd1 (dysbindin domain containing 1)	1		1.27	1.68	fewer than 50 cells per well; well left out of scoring	inactive
15	Pcdh1 (protocadherin 1)	1	-0.23	1.57	1.36	enough cells to score	inactive
16	Dmc1 (DNA meiotic recombinase 1)	1		1.51	1.21	fewer than 50 cells per well; well left out of scoring	inactive
17	Pdk2 (pyruvate dehydrogenase kinase, isoenzyme 2)	1	1.65	2	1.54	enough cells to score	inactive
18	Rab9 (RAB9, member RAS oncogene family)	1	-0.29	1.5	1.45	enough cells to score	inactive
19	5031404N07	1		1.5	1.73	fewer than 50 cells per well; well left out of scoring	inactive
20	Tmem109 (transmembrane protein 109)	1	0.75	1.49	1.69	enough cells to score	inactive
21	Oat (ornithine aminotransferase)	1	-1.12	1.37	1.2	enough cells to score	inactive
22	Scarb2 (scavenger receptor class B, member 2)	1	-1.34	1.34	1.31	enough cells to score	inactive
23	Nqo1 (NAD(P)H dehydrogenase, quinone 1)	1	0.84	1.57	1.51	enough cells to score	inactive
24	Toe1 (target of EGR1, member 1 (nuclear))	1		1.17	2.94	fewer than 50 cells per well; well left out of scoring	inactive
25	Ppm1d (protein phosphatase 1D magnesium-dependent, delta isoform)	1	0.71	1.57	1.53	enough cells to score	inactive
26	Acot7 (acyl-CoA thioesterase 7)	1	-0.04	1.62	1.6	enough cells to score	inactive
27	Slf1 (SMC5-SMC6 complex localization factor 1)	1	0.55	1.61	1.85	enough cells to score	inactive
28	Ackr2 (atypical chemokine receptor 2)	1		1.57	1.65	fewer than 50 cells per well; well left out of scoring	inactive
29	Mospd3 (motile sperm domain containing 3)	1	0.4	1.86	1.65	enough cells to score	inactive
30	Thap2 (THAP domain containing, apoptosis associated protein 2)	1	-1.11	1.26	1.41	enough cells to score	inactive
31	Ctsj (cathepsin J)	1	0.18	1.59	1.83	enough cells to score	inactive
32	Prr14 (proline rich 14)	1	-1.31	1.31	1.71	enough cells to score	inactive
33	Cwc15 (CWC15 spliceosome-associated protein)	1	0.22	1.53	1.28	enough cells to score	inactive
34	Armcx2 (armadillo repeat containing, X-linked 2)	1	-0.44	1.47	1.65	enough cells to score	inactive
35	Ahi1 (Abelson helper integration site 1)	1	-0.54	1.51	1.61	enough cells to score	inactive
36	Zfp599 (zinc finger protein 599)	1	0.17	1.48	1.52	enough cells to score	inactive
37	Col6a1 (collagen, type VI, alpha 1)	1	0.02	1.55	1.31	enough cells to score	inactive
38	Prl3d2 (prolactin family 3, subfamily d, member 2)	1	0.59	1.45	1.19	enough cells to score	inactive
39	Glrx2 (glutaredoxin 2)	1	0.93	1.51	1.54	enough cells to score	inactive
40	Lrrc28 (leucine rich repeat containing 28)	1		1.63	1.8	fewer than 50 cells per well; well left out of scoring	inactive
41	Adgrl2 (adhesion G protein-coupled receptor L2)	1	0.41	1.54	1.67	enough cells to score	inactive
42	Tjp2 (tight junction protein 2)	1	-0.2	1.71	1.36	enough cells to score	inactive
43	Sv2a (synaptic vesicle glycoprotein 2a)	1	2.66	1.78	1.24	enough cells to score	inactive
44	Fryl (FRY like transcription coactivator)	1	-0.34	1.38	1.44	enough cells to score	inactive
45	Fryl (FRY like transcription coactivator)	2	-1.02	1.27	1.46	enough cells to score	inactive
46	Fyn (Fyn proto-oncogene, Src family tyrosine kinase)	1	0.79	1.82	1.48	enough cells to score	inactive
47	Dnajc24 (DnaJ heat shock protein family (Hsp40) member C24)	1	-0.58	1.32	1.41	enough cells to score	inactive
48	Huwe1 (HECT, UBA and WWE domain containing 1)	1	-0.29	1.46	1.47	enough cells to score	inactive
49	Ccs (copper chaperone for superoxide dismutase)	1	-0.67	1.21	1.29	enough cells to score	inactive
50	Ywhaq	1	-0.55	1.44	1.42	enough cells to score	inactive
51	Vps25 (vacuolar protein sorting 25)	1	-0.25	1.42	1.88	enough cells to score	inactive
52	Zdhhc20 (zinc finger, DHHC domain containing 20)	1		1.38	1.21	fewer than 50 cells per well; well left out of scoring	inactive
53	Cacng3 (calcium channel, voltage-dependent, gamma subunit 3)	1	0.4	1.46	1.84	enough cells to score	inactive
54	Sv2b (synaptic vesicle glycoprotein 2b)	1	1.04	1.41	1.35	enough cells to score	inactive
55	Krt17 (keratin 17)	1	-0.32	1.39	1.37	enough cells to score	inactive
56	Rpl32 (ribosomal protein L32)	1		1.28	1.1	fewer than 50 cells per well; well left out of scoring	inactive
57	Elmod3 (ELMO/CED-12 domain containing 3)	1	-0.11	1.63	1.56	enough cells to score	inactive
58	Myl3 (myosin, light polypeptide 3)	1	-1.34	1.25	1.19	enough cells to score	inactive
59	Zfyve21 (zinc finger, FYVE domain containing 21)	1	-1.01	1.25	1.16	enough cells to score	inactive

Looked up above.
Entry for Dnajc22 (DnaJ heat shock protein family (Hsp40) member C22) under “p65 translocation robust z-score”: -1.35
Under “nuclear/cytoplasmic p65 ratio, rep 2”, Zbtb37 (zinc finger and BTB domain containing 37) shows 1.6
Under “nuclear/cytoplasmic p65 ratio, rep 2”, Mospd3 (motile sperm domain containing 3) is entered as 1.65
Entry for Ppm1d (protein phosphatase 1D magnesium-dependent, delta isoform) in “p65 translocation robust z-score”: 0.71
For “nuclear/cytoplasmic p65 ratio, rep 1”, Dbndd1 (dysbindin domain containing 1) is entered as 1.27
Under “Outcome”, Rpl32 (ribosomal protein L32) reads inactive
